# Source: the supplement of paper PMC8728848
# Some of the results follow.
# B1: Erv46-EDTA (Saccharomyces cerevisiae), P39727 (protein)
# chain: MKFLVNVALVFMVVYISYIYAAAPEHHHHHHDYDIPTTENLYFQGAMDSVVTRPQLVVDRDRHAKLELNMDVTFPSMPCDLVNLDIMDDSGEMQLDILDAGFTMSRLNSEGRPVGDATELHVGGNGDGTAPVNNDPNYCGPCYGAKDQSQNENLAQEEKVCCQDCDAVRSAYLEAGWAFFDGKNIEQCEREGYVSKINEHLNEGCRIKGSAQINRIQGNLHFAPGKPYQNAYGHFHDTSLYDKTSNLNFNHIINHLSFGKPIQSHSKLLGNDKRHGGAVVATSPLDGRQVFPDRNTHFHQFSYFAKIVPTRYEYLDNVVIETAQFSATFHSRPLAGGRDKDHPNTLHVRGGIPGMFVFFEMSPLKVINKEQ
# Columns and labels:
# Assay in all cases: glycan array binding signal (z-score within array); higher = stronger binding
# Settings in all cases: glycan notation: IUPAC condensed, linker removed
# [1] = biological target: Fuc(a1-2)Gal6S(b1-3)GlcNAc
# Method in brief: (§1)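 Negative Z-scores can be read as non-binding. The Z-score is calculated within each array and then averaged across arrays of one protein sequence at different concentrations or buffers and across linkers. Arrays, 3228 in all, were curated from the Consortium for Functional Glycomics database and kept only where the protein sequence was available.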
# [2] = biological target: Fuc(a1-2)Gal6S(b1-3)GlcNAc6S
# Method in brief: as §1
# Fuc(a1-2)Gal6S(b1-4)Glc = biological target: Fuc(a1-2)Gal6S(b1-4)Glc
# Method in brief: as §1
# [3] = biological target: Fuc(a1-2)Gal6S(b1-4)Glc6S
# Method in brief: as §1
# Fuc(a1-2)[Gal(a1-3)]Gal = biological target: Fuc(a1-2)[Gal(a1-3)]Gal
# Method in brief: as §1
# [4] = biological target: Fuc(a1-2)[Gal(a1-3)]Gal(b1-3)GalNAc
# Method in brief: as §1
# [5] = biological target: Fuc(a1-2)[Gal(a1-3)]Gal(b1-3)GalNAc(b1-3)Gal(a1-4)Gal(b1-4)Glc
# Method in brief: as §1
# [6] = biological target: Fuc(a1-2)[Gal(a1-3)]Gal(b1-3)GlcNAc
# Method in brief: as §1
# [7] = biological target: Fuc(a1-2)[Gal(a1-3)]Gal(b1-3)GlcNAc(b1-2)Man(a1-3)[Fuc(a1-2)[Gal(a1-3)]Gal(b1-3)GlcNAc(b1-2)Man(a1-6)]Man(b1-4)GlcNAc(b1-4)GlcNAc
# Method in brief: as §1
# [8] = biological target: Fuc(a1-2)[Gal(a1-3)]Gal(b1-3)GlcNAc(b1-2)Man(a1-3)[Fuc(a1-2)[Gal(a1-3)]Gal(b1-3)GlcNAc(b1-2)Man(a1-6)]Man(b1-4)GlcNAc(b1-4)[Fuc(a1-6)]GlcNAc
# Method in brief: as §1
# [9] = biological target: Fuc(a1-2)[Gal(a1-3)]Gal(b1-3)GlcNAc(b1-3)GalNAc
# Method in brief: as §1
# [10] = biological target: Fuc(a1-2)[Gal(a1-3)]Gal(b1-3)GlcNAc(b1-6)GalNAc
# Method in brief: as §1
# [11] = biological target: Fuc(a1-2)[Gal(a1-3)]Gal(b1-4)Glc
# Method in brief: as §1
# [12] = biological target: Fuc(a1-2)[Gal(a1-3)]Gal(b1-4)GlcNAc
# Method in brief: as §1
# [13] = biological target: Fuc(a1-2)[Gal(a1-3)]Gal(b1-4)GlcNAc(b1-2)Man
# Method in brief: as §1
# [14] = biological target: Fuc(a1-2)[Gal(a1-3)]Gal(b1-4)GlcNAc(b1-2)Man(a1-3)[Fuc(a1-2)[Gal(a1-3)]Gal(b1-4)GlcNAc(b1-2)Man(a1-6)]Man(b1-4)GlcNAc(b1-4)GlcNAc
# Method in brief: as §1
# [15] = biological target: Fuc(a1-2)[Gal(a1-3)]Gal(b1-4)GlcNAc(b1-2)Man(a1-3)[Fuc(a1-2)[Gal(a1-3)]Gal(b1-4)GlcNAc(b1-2)Man(a1-6)]Man(b1-4)GlcNAc(b1-4)[Fuc(a1-6)]GlcNAc
# Method in brief: as §1
# [16] = biological target: Fuc(a1-2)[Gal(a1-3)]Gal(b1-4)GlcNAc(b1-3)GalNAc
# Method in brief: as §1
# [17] = biological target: Fuc(a1-2)[Gal(a1-3)]Gal(b1-4)GlcNAc(b1-3)[Fuc(a1-2)[Gal(a1-3)]Gal(b1-4)GlcNAc(b1-6)]GalNAc
# Method in brief: as §1
# [18] = biological target: Fuc(a1-2)[Gal(a1-3)]Gal(b1-4)GlcNAc(b1-6)GalNAc
# Method in brief: as §1
# [19] = biological target: Fuc(a1-2)[Gal(a1-3)]Gal(b1-4)[Fuc(a1-3)]Glc
# Method in brief: as §1
# [20] = biological target: Fuc(a1-2)[Gal(a1-3)]Gal(b1-4)[Fuc(a1-3)]GlcNAc
# Method in brief: as §1
# [21] = biological target: Fuc(a1-2)[Gal(a1-3)]Gal(b1-4)[Fuc(a1-3)]GlcNAc(b1-3)GalNAc
# Method in brief: as §1
# [22] = biological target: Fuc(a1-2)[Gal(a1-4)]Gal(b1-4)GlcNAc
# Method in brief: as §1
# [23] = biological target: Fuc(a1-2)[GalNAc(a1-3)]Gal
# Method in brief: as §1
# [24] = biological target: Fuc(a1-2)[GalNAc(a1-3)]Gal(b1-3)GalNAc(a1-3)[Fuc(a1-2)]Gal(b1-4)GlcNAc
# Method in brief: as §1
# [25] = biological target: Fuc(a1-2)[GalNAc(a1-3)]Gal(b1-3)GalNAc(b1-3)Gal(a1-4)Gal(b1-4)Glc
# Method in brief: as §1
# [26] = biological target: Fuc(a1-2)[GalNAc(a1-3)]Gal(b1-3)GlcNAc
# Method in brief: as §1
# [27] = biological target: Fuc(a1-2)[GalNAc(a1-3)]Gal(b1-3)GlcNAc(b1-2)Man(a1-3)[Fuc(a1-2)[GalNAc(a1-3)]Gal(b1-3)GlcNAc(b1-2)Man(a1-6)]Man(b1-4)GlcNAc(b1-4)GlcNAc
# Method in brief: as §1
# [28] = biological target: Fuc(a1-2)[GalNAc(a1-3)]Gal(b1-3)GlcNAc(b1-2)Man(a1-3)[Fuc(a1-2)[GalNAc(a1-3)]Gal(b1-3)GlcNAc(b1-2)Man(a1-6)]Man(b1-4)GlcNAc(b1-4)[Fuc(a1-6)]GlcNAc
# Method in brief: as §1
# [29] = biological target: Fuc(a1-2)[GalNAc(a1-3)]Gal(b1-3)GlcNAc(b1-3)GalNAc
# Method in brief: as §1
# [30] = biological target: Fuc(a1-2)[GalNAc(a1-3)]Gal(b1-3)GlcNAc(b1-6)GalNAc
# Method in brief: as §1
# [31] = biological target: Fuc(a1-2)[GalNAc(a1-3)]Gal(b1-4)Glc
# Method in brief: as §1
# [32] = biological target: Fuc(a1-2)[GalNAc(a1-3)]Gal(b1-4)GlcNAc
# Method in brief: as §1
# [33] = biological target: Fuc(a1-2)[GalNAc(a1-3)]Gal(b1-4)GlcNAc(b1-2)Man
# Method in brief: as §1
# [34] = biological target: Fuc(a1-2)[GalNAc(a1-3)]Gal(b1-4)GlcNAc(b1-2)Man(a1-3)[Fuc(a1-2)[GalNAc(a1-3)]Gal(b1-4)GlcNAc(b1-2)Man(a1-6)]Man(b1-4)GlcNAc(b1-4)GlcNAc
# Method in brief: as §1
# [35] = biological target: Fuc(a1-2)[GalNAc(a1-3)]Gal(b1-4)GlcNAc(b1-2)Man(a1-3)[Fuc(a1-2)[GalNAc(a1-3)]Gal(b1-4)GlcNAc(b1-2)Man(a1-6)]Man(b1-4)GlcNAc(b1-4)[Fuc(a1-6)]GlcNAc
# Method in brief: as §1
# [36] = biological target: Fuc(a1-2)[GalNAc(a1-3)]Gal(b1-4)GlcNAc(b1-3)Gal(b1-4)GlcNAc
# Method in brief: as §1
# [37] = biological target: Fuc(a1-2)[GalNAc(a1-3)]Gal(b1-4)GlcNAc(b1-3)Gal(b1-4)GlcNAc(b1-3)Gal(b1-4)GlcNAc
# Method in brief: as §1
# [38] = biological target: Fuc(a1-2)[GalNAc(a1-3)]Gal(b1-4)GlcNAc(b1-3)GalNAc
# Method in brief: as §1
# [39] = biological target: Fuc(a1-2)[GalNAc(a1-3)]Gal(b1-4)GlcNAc(b1-3)[Fuc(a1-2)[GalNAc(a1-3)]Gal(b1-4)GlcNAc(b1-6)]GalNAc
# Method in brief: as §1
# [40] = biological target: Fuc(a1-2)[GalNAc(a1-3)]Gal(b1-4)GlcNAc(b1-6)GalNAc
# Method in brief: as §1
# [41] = biological target: Fuc(a1-2)[GalNAc(a1-3)]Gal(b1-4)[Fuc(a1-3)]GlcNAc
# Method in brief: as §1
# [42] = biological target: Fuc(a1-2)[GalNAc(a1-3)]Gal(b1-4)[Fuc(a1-3)]GlcNAc(b1-3)GalNAc
# Method in brief: as §1
# [43] = biological target: Fuc(a1-2)[GalNAc(a1-4)]Gal(b1-4)GlcNAc
# Method in brief: as §1
binder,measurement,setting,value
B1,glycan array binding signal (z-score),[1],-0.892
same,glycan array binding signal (z-score),[2],0.837
same,glycan array binding signal (z-score),Fuc(a1-2)Gal6S(b1-4)Glc,0.218
same,glycan array binding signal (z-score),[3],0.075
same,glycan array binding signal (z-score),Fuc(a1-2)[Gal(a1-3)]Gal,-0.681
same,glycan array binding signal (z-score),[4],0.059
same,glycan array binding signal (z-score),[5],0.235
same,glycan array binding signal (z-score),[6],-0.131
same,glycan array binding signal (z-score),[7],0.041
same,glycan array binding signal (z-score),[8],-0.237
same,glycan array binding signal (z-score),[9],0.419
same,glycan array binding signal (z-score),[10],-0.095
same,glycan array binding signal (z-score),[11],-0.255
same,glycan array binding signal (z-score),[12],-0.476
same,glycan array binding signal (z-score),[13],-0.677
same,glycan array binding signal (z-score),[14],-0.325
same,glycan array binding signal (z-score),[15],-0.448
same,glycan array binding signal (z-score),[16],-0.658
same,glycan array binding signal (z-score),[17],-0.131
same,glycan array binding signal (z-score),[18],-0.865
same,glycan array binding signal (z-score),[19],0.069
same,glycan array binding signal (z-score),[20],-0.508
same,glycan array binding signal (z-score),[21],0.181
same,glycan array binding signal (z-score),[22],-0.193
same,glycan array binding signal (z-score),[23],-0.619
same,glycan array binding signal (z-score),[24],-0.454
same,glycan array binding signal (z-score),[25],-0.284
same,glycan array binding signal (z-score),[26],-0.201
same,glycan array binding signal (z-score),[27],0.12
same,glycan array binding signal (z-score),[28],0.038
same,glycan array binding signal (z-score),[29],0.101
same,glycan array binding signal (z-score),[30],-0.826
same,glycan array binding signal (z-score),[31],-0.136
same,glycan array binding signal (z-score),[32],-0.358
same,glycan array binding signal (z-score),[33],-0.576
same,glycan array binding signal (z-score),[34],0.068
same,glycan array binding signal (z-score),[35],0.123
same,glycan array binding signal (z-score),[36],0.084
same,glycan array binding signal (z-score),[37],-0.164
same,glycan array binding signal (z-score),[38],-0.407
same,glycan array binding signal (z-score),[39],-0.525
same,glycan array binding signal (z-score),[40],-0.12
same,glycan array binding signal (z-score),[41],1.54
same,glycan array binding signal (z-score),[42],1.58
same,glycan array binding signal (z-score),[43],-0.433

# Some of the entries above in a different format.
binder | measurement | setting | value
B1 | glycan array binding signal (z-score) | [6] | -0.131
same | glycan array binding signal (z-score) | [7] | 0.041
same | glycan array binding signal (z-score) | [8] | -0.237
same | glycan array binding signal (z-score) | [9] | 0.419
same | glycan array binding signal (z-score) | [10] | -0.095
same | glycan array binding signal (z-score) | [11] | -0.255
same | glycan array binding signal (z-score) | [12] | -0.476
same | glycan array binding signal (z-score) | [13] | -0.677
same | glycan array binding signal (z-score) | [14] | -0.325
